Some of the results follow.
Tests used:
Assay in all cases: log2 fold change, soluble protein after heating vs DMSO (PISA); higher = thermal stabilisation; K562 cells, 10 uM, 30 min; active = over 0.2 and 3.5 SD of the protein, either way, in both replicates (recomputed)
erlotinib = compound: C#Cc1cccc(Nc2ncnc3cc(OCCOC)c(OCCOC)cc23)c1 [erlotinib]
Method in brief: (§1)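 Thermal stability values are relative to control samples and come from duplicates. They are expressed as log2 fold changes. For measurement, K562 cells (2×10^6 cells/mL) received 10 μM compound for 30 min, and aliquots were heated for 3 min over 48°C-58°C, pooled, and extracted at 4°C in PBS with 0.5% NP-40. Soluble protein, the supernatant after 21,000xg for 90 min, was quantified by TMTpro 16plex LC-MS/MS with equalised channel sums.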

By UniProt entry, the sequences of proteins in these tests, tags left out. Where a name states a change or a piece, a line headed by the entry shows the natural chain unless it says otherwise.
UniProt Q9NVN3: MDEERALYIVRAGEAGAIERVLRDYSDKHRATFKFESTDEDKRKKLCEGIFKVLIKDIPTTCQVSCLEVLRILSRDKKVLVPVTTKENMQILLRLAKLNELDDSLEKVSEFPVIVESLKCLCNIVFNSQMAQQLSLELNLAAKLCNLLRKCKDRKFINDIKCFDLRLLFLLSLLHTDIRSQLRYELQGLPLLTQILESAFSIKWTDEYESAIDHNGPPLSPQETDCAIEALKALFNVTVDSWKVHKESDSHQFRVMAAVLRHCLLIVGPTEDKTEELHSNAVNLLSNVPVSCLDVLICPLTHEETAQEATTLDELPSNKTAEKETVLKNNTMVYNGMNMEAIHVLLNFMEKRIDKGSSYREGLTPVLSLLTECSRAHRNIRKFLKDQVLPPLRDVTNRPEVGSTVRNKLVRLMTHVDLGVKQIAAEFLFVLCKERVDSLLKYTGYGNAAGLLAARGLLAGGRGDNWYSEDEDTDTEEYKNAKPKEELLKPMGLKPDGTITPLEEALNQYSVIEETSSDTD
UniProt Q8NCN4: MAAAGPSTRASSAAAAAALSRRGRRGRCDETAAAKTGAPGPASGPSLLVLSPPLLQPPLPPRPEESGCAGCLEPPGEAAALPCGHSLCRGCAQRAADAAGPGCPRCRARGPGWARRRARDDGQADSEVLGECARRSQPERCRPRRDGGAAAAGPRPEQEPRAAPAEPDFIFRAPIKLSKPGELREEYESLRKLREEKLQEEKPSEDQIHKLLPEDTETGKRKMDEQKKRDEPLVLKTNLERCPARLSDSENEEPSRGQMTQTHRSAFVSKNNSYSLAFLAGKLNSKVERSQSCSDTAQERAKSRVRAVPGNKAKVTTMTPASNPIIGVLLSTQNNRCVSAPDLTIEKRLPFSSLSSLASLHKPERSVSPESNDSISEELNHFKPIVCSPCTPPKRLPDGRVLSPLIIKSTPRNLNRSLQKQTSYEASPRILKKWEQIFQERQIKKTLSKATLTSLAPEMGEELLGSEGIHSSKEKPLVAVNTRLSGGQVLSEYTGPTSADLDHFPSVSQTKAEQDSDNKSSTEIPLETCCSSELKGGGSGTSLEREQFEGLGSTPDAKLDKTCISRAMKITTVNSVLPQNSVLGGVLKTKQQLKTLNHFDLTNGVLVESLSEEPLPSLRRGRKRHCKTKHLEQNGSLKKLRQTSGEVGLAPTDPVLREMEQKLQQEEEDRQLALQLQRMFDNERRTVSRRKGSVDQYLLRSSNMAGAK
UniProt P48380: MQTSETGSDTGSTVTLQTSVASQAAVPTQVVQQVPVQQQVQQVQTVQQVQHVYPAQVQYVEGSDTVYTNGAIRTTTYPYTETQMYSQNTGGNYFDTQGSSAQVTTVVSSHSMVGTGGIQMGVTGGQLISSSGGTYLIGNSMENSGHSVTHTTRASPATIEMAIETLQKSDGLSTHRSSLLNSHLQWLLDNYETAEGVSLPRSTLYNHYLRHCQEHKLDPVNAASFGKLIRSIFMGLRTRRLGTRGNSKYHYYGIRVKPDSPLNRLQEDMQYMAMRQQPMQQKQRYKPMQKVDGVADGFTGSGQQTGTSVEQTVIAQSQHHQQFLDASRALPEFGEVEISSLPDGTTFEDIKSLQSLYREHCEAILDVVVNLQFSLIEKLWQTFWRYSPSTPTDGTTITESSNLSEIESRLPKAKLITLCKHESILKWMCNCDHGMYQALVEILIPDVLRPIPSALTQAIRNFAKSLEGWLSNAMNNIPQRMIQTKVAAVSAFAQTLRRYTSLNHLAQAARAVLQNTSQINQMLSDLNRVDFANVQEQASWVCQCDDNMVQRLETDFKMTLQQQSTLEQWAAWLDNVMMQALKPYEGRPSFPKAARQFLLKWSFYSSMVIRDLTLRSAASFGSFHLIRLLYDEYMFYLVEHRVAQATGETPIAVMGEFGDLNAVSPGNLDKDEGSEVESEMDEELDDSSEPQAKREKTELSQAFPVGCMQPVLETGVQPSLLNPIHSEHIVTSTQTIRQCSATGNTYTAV
UniProt Q9HBD1: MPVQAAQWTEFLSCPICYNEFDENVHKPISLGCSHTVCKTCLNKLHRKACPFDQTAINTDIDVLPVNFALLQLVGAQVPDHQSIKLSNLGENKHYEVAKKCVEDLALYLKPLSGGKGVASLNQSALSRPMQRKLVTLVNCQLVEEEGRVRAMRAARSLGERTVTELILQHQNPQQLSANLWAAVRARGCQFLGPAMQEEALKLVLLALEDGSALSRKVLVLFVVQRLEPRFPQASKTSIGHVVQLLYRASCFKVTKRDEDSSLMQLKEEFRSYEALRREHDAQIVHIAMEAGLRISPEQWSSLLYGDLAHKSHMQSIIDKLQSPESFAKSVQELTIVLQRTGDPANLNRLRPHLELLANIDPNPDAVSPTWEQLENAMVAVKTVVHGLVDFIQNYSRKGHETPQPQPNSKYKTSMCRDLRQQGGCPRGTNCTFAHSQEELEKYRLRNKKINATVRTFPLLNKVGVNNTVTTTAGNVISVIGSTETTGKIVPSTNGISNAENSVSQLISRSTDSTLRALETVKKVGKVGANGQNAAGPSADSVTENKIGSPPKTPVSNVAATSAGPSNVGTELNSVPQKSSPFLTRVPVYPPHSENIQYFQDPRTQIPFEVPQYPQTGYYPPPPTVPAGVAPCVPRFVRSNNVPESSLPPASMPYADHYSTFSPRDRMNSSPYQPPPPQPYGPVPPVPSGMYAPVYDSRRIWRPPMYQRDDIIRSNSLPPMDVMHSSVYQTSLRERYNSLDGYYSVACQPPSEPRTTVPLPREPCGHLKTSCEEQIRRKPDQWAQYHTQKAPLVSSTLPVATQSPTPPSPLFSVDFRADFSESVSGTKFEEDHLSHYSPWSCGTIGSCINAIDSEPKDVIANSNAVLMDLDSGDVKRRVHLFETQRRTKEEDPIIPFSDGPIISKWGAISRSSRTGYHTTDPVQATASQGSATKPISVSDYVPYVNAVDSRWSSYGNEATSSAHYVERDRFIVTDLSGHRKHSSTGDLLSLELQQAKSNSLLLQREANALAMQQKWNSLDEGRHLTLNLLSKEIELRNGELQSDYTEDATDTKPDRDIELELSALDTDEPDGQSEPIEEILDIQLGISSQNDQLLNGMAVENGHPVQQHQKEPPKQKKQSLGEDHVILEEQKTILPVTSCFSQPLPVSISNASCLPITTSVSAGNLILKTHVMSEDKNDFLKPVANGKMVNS
UniProt Q02161: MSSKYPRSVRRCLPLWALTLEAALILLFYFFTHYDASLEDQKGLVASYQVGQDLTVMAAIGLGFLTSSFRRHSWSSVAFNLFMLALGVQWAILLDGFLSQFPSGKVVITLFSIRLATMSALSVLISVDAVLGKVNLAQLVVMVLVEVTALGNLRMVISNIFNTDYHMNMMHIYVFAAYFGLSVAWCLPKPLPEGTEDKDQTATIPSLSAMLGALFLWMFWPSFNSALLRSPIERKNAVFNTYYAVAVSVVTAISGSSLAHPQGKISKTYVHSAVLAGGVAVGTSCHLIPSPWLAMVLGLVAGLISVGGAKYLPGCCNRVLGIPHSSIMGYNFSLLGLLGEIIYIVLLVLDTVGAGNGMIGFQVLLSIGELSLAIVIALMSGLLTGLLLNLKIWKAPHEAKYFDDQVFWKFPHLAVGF
UniProt Q96A37: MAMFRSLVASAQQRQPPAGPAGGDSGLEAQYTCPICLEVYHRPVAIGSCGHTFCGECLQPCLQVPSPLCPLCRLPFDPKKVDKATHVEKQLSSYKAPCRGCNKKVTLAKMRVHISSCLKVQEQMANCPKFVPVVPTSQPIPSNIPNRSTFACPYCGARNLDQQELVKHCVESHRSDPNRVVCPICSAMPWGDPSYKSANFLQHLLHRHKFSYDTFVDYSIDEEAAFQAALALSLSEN
UniProt Q8WU17: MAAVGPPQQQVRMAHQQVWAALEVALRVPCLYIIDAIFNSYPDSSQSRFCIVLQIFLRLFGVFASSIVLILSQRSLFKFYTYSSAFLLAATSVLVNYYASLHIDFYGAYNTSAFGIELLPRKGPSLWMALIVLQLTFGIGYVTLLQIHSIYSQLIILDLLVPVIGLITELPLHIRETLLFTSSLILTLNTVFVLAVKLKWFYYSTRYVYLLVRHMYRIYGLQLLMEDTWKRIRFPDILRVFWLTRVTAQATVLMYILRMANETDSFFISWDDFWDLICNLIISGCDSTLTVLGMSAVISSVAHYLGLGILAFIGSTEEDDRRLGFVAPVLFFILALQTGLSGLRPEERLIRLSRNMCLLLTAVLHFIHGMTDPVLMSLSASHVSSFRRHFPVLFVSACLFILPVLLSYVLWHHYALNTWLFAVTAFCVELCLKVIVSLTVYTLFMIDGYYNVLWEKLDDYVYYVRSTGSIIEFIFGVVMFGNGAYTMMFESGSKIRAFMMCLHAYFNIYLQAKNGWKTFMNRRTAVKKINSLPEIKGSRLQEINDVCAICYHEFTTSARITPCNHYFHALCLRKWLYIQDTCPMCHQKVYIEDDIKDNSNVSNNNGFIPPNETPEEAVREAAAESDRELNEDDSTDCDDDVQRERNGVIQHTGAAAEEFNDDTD
UniProt Q9H1E1: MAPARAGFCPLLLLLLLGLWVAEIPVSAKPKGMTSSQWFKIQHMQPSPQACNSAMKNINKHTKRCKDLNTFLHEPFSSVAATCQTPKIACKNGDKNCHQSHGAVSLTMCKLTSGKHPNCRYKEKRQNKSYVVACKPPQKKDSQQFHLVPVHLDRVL
UniProt Q9Y580: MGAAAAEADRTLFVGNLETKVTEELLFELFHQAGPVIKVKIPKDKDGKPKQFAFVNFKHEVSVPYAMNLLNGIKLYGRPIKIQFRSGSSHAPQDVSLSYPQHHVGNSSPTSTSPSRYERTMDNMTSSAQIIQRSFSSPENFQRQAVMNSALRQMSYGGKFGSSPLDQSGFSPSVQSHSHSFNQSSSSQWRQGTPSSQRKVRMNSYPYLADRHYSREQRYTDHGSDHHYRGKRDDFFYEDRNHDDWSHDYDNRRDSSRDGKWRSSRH
UniProt Q9P2R6: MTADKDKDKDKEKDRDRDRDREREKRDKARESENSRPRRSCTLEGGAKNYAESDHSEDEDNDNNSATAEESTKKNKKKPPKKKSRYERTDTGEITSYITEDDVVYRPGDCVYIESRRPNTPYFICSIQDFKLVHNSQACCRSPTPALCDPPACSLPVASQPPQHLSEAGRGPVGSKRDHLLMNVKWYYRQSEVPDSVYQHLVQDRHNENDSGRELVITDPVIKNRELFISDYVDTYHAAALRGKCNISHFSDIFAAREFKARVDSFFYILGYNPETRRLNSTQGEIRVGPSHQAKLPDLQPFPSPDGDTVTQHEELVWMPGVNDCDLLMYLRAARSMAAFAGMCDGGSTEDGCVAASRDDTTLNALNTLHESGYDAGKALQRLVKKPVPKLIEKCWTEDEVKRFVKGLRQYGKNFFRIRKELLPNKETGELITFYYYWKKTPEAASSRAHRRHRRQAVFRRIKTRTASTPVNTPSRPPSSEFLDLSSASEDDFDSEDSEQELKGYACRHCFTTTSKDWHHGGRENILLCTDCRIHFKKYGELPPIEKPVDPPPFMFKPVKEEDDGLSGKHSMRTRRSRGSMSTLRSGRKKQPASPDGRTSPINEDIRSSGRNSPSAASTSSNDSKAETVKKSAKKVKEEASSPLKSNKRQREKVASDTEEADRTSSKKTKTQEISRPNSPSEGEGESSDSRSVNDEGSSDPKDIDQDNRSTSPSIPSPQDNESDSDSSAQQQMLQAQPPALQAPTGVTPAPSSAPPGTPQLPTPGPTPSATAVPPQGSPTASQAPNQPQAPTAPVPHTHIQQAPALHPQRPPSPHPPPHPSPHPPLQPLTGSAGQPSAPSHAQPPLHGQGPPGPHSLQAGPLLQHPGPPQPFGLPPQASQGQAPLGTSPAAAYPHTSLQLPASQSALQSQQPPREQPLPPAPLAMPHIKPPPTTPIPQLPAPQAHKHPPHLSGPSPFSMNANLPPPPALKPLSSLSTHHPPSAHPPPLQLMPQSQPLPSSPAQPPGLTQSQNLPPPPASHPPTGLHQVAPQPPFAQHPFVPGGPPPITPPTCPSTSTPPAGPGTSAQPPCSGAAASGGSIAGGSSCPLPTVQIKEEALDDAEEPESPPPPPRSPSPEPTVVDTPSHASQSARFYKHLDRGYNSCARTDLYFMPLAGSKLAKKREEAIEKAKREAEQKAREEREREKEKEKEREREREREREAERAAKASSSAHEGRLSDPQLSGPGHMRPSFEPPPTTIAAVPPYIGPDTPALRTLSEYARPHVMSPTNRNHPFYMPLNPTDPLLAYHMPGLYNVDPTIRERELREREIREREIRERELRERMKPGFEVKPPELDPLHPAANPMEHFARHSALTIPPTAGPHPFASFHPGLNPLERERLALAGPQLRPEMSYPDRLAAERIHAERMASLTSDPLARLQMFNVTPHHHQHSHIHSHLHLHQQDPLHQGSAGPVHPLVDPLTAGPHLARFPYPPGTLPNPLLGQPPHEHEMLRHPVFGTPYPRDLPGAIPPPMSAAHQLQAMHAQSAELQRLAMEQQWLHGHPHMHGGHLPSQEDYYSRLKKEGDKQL

[1] = compound: C1=CC(=C(C=C1Cl)C2=NC3=NC=CN=C3C(=N2)NC4=CC=NC=C4)F
Method in brief: as §1

[2] = compound: C1=CC(=CC=C1C2=NC3=C(N2)C=C(C=C3)C(=O)N)OC4=CC=C(C=C4)Cl
Method in brief: as §1

[3] = compound: C1=CC=C(C=C1)C2=NC(=C(N2)C3=CC=NC=C3)C4=CC(=C(C=C4)Cl)O
Method in brief: as §1

[4] = compound: C1CCN(C1)C(=O)NC2=CC=CC(=C2)NC3=NC=C(C(=N3)NCCC4=CN=CN4)Br
Method in brief: as §1

[5] = compound: C1CN(CCC1(CC2=CC=C(C=C2)Cl)N)C3=NC=NC4=C3C=CN4
Method in brief: as §1

[6] = compound: C1=CC2=NC=CN=C2C=C1/C=C/3\C(=O)NC(=O)S3
Method in brief: as §1

[7] = compound: C/C(=N\NC(=O)C1=CC(=CC=C1)S(=O)(=O)N2CCOCC2)/C3=C(C=CC(=C3)Cl)O
Method in brief: as §1

[8] = compound: C1=CC2=C(C=CC(=C2)/C=C\3/C(=O)NC(=NCC4=CC=CS4)S3)N=C1
Method in brief: as §1

[9] = compound: C1=CC=C2C(=C1)C3=NNC4=CC=CC(=C43)C2=O
Method in brief: as §1

Measured: log2 fold change

RILPL1 (UniProt Q5EBL4)
inactive: erlotinib 0.094 | [1] -0.005 | [2] 0.152 | [3] -0.151 | [4] 0.059 | [5] -0.211

RNF130 (UniProt Q86XS8)
inactive: erlotinib 0.047 | [2] 0.054 | [6] -0.107

RBMY1E (UniProt A6NEQ0)
inactive: erlotinib -0.238 | [2] 0.06 | [6] -0.003 | [3] -0.044 | [4] -0.072 | [5] -0.099

RFC1 (UniProt P35251)
inactive: [7] -0.309 | [8] -0.039 | [3] 0.233 | [9] 0.02 | [4] 0.079 | [5] -0.109

RELA (UniProt Q04206)
inactive: [7] 0.034 | [1] 0.003 | [2] -0.011 | [8] -0.007 | [6] 0.014 | [3] -0.002 | [9] 0.004 | [4] -0.022 | [5] 0.011

RIC8B isoform 1 (UniProt Q9NVN3)
inactive: erlotinib 0.095 | [1] -0.135 | [2] 0.086

RNF24 isoform 2 (UniProt Q9Y225)
inactive: erlotinib -0.062 | [1] -0.015 | [2] -0.019 | [6] 0.007 | [3] 0.147

RCBTB1 (UniProt Q8NDN9)
inactive: erlotinib 0.148 | [1] -0.063 | [2] -0.098 | [6] -0.245

RIF1 (UniProt Q5UIP0)
inactive: erlotinib 0.169 | [1] -0.124 | [2] -0.141 | [3] -0.21 | [4] 0.165 | [5] -0.001

RNF169 (UniProt Q8NCN4)
inactive: [4] -0.04 | [5] -0.007

RNF170 (UniProt Q96K19)
inactive: [7] -0.044 | [1] 0.1 | [8] 0.103 | [6] -0.002 | [3] 0.082 | [9] -0.053

RGCC (UniProt Q9H4X1)
inactive: erlotinib 0.295 | [7] 0.048 | [2] 0.108 | [8] 0.184 | [6] -0.052 | [9] -0.125

RLIM (UniProt Q9NVW2)
inactive: [7] -0.598 | [8] 0.109 | [3] 0.017 | [9] -0.049 | [4] 0.171 | [5] 0.103

RFXANK (UniProt O14593)
inactive: [1] 0.041

RGN (UniProt Q15493)
inactive: [7] 0.094 | [8] -0.302 | [9] -0.002 | [4] 0.33 | [5] 0.144

Fetched one by one from the entries so far, three records:
RLIM (UniProt Q9NVW2)
inactive: [7] -0.598 | [8] 0.109 | [3] 0.017 | [9] -0.049 | [4] 0.171 | [5] 0.103

RNF170 (UniProt Q96K19)
inactive: [7] -0.044 | [1] 0.1 | [8] 0.103 | [6] -0.002 | [3] 0.082 | [9] -0.053

RNF169 (UniProt Q8NCN4)
inactive: [4] -0.04 | [5] -0.007

(continued)

RBM6 (UniProt P78332)
inactive: [7] 0.019 | [8] 0.036 | [9] -0.1 | [4] 0.048 | [5] 0.018

RFX3 (UniProt P48380)
inactive: erlotinib -0.081 | [2] 0.126 | [6] -0.024

RNF141 (UniProt Q8WVD5)
inactive: erlotinib 0.026 | [2] -0.051 | [6] 0.112 | [3] -0.04 | [4] -0.035 | [5] -0.048

RILPL2 (UniProt Q969X0)
inactive: [1] -0.045

RHOXF2B (UniProt P0C7M4)
inactive: [7] 0.02 | [8] 0.062 | [9] -0.027

RCL1 (UniProt Q5VZU2)
inactive: [7] -0.186 | [1] -0.246 | [8] 0.379 | [3] -0.04 | [9] 0.23 | [4] 0.163 | [5] -0.023

RC3H2 (UniProt Q9HBD1)
inactive: [1] -0.191 | [4] -0.201 | [5] 0.126

RHD (UniProt Q02161)
inactive: erlotinib -0.07 | [7] 0.036 | [2] -0.05 | [8] 0.106 | [9] -0.148 | [4] -0.017 | [5] 0.008

RNF166 (UniProt Q96A37)
inactive: erlotinib 0.05 | [7] -0.153 | [2] -0.105 | [8] -0.116 | [3] 0.103 | [9] -0.056 | [4] 0.051 | [5] 0.085

RMI2 (UniProt Q96E14)
inactive: [7] -0.174 | [8] 0.129 | [3] 0.306 | [9] 0.13 | [4] -0.075 | [5] -0.081

RNASEL (UniProt Q05823)
inactive: [3] -0.232

RNF111 isoform 3 (UniProt Q6ZNA4)
inactive: erlotinib 0.057 | [2] -0.011

RNF139 (UniProt Q8WU17)
inactive: erlotinib 0.015 | [1] 0.069 | [2] 0.017 | [6] 0.057 | [3] 0.014 | [4] 0.082 | [5] -0.067

RNASE7 (UniProt Q9H1E1)
inactive: [7] 0.244 | [8] 0.544 | [9] -0.357

RBM7 (UniProt Q9Y580)
inactive: erlotinib -0.048 | [1] -0.109 | [2] -0.048 | [3] 0.179 | [4] -0.052 | [5] -0.118

RERE (UniProt Q9P2R6)
inactive: erlotinib -0.026 | [1] 0.002 | [2] -0.01 | [6] -0.016 | [3] -0.164

RIPOR1 isoform 4 (UniProt Q6ZS17)
inactive: [1] -0.064 | [3] -0.19 | [4] 0.093 | [5] -0.133

RNF220 isoform 3 (UniProt Q5VTB9)
inactive: erlotinib -0.109 | [7] -0.021 | [2] 0.229 | [8] -0.05 | [9] -0.055
